No constants are given. Whether binding was seen depends on the method and setting. In cells and extracts the contact can be indirect. Some entries that bind do so weakly or less than the wild type. Where a sequence is shown, tags or fusion partners need not be part of it.
Key:
[1] = molecular target: T1, mouse Dnaaf6, FLAG-tagged (mouse) (UniProt Q3KNI6); test: co-IP; FLAG-tagged bait and HA-tagged prey expressed in S2 cells, harvested after 48-72 h; FLAG Immunoprecipitation kit; Western blot with anti-FLAG and anti-HA together
T1 sequence: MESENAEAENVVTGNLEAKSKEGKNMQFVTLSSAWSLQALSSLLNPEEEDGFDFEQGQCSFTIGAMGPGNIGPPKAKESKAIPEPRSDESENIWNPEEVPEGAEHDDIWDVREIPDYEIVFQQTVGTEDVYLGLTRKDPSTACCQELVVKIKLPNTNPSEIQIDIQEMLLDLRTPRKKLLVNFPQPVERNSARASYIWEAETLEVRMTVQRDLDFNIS

Chains of the proteins cited; added tags and fusions are not shown.
UniProt P02828: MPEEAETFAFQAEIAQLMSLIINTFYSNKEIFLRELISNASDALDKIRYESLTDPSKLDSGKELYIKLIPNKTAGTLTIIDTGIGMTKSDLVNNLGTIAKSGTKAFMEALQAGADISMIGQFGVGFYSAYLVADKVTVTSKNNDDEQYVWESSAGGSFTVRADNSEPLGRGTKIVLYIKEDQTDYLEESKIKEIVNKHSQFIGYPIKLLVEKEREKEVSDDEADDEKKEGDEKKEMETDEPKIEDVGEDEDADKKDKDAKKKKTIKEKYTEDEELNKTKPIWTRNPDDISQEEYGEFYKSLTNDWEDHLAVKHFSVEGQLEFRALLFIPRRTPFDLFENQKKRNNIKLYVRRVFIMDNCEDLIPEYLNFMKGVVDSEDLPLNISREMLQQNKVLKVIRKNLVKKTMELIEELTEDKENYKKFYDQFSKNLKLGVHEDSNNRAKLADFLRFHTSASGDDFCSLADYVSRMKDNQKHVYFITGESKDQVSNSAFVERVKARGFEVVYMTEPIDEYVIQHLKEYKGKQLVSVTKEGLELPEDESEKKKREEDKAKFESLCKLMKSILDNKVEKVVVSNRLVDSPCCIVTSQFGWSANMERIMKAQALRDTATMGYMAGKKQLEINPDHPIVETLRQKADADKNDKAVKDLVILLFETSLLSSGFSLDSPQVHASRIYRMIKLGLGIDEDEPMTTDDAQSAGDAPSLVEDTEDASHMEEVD
UniProt Q9VH07: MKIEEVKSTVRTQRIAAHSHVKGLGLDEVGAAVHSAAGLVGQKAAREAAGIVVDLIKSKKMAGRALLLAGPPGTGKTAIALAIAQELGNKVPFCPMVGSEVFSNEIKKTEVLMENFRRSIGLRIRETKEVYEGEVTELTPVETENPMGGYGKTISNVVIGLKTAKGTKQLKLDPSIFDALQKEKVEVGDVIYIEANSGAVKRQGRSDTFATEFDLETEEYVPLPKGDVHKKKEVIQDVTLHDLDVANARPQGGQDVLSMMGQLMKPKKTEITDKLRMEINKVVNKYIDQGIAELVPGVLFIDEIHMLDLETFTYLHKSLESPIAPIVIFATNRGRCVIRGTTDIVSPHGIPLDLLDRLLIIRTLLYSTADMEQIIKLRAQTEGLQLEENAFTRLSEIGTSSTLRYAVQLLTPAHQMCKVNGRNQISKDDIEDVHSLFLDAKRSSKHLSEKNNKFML
UniProt Q9V3K3: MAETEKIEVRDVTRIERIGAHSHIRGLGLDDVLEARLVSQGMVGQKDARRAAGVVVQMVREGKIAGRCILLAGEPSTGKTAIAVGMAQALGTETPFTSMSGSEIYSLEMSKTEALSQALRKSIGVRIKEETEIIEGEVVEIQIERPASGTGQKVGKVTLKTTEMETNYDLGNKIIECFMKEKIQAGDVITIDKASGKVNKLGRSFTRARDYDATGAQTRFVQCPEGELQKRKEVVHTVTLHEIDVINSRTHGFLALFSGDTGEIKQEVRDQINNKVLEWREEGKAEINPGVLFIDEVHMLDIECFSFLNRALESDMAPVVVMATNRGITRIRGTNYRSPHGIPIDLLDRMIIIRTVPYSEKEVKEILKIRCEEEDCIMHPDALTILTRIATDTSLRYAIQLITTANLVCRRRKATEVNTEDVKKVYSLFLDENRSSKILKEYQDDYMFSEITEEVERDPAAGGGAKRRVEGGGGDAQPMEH

[2] = molecular target: Drosophila Hsp90, FLAG-tagged (Drosophila melanogaster) (UniProt P02828); test: as above

Drosophila Hsp90, HA-tagged (from UniProt P02828 1-717)
binding [1]: binds

Drosophila Pontin, HA-tagged (from UniProt Q9VH07 1-456)
binding [1]: binds

Drosophila Reptin, HA-tagged (from UniProt Q9V3K3 1-481)
binding [1]: binds

B1: mouse Dnaaf4, HA-tagged (protein, UniProt Q8R368 1-420)
chain: MPVRVSEFSWQQTPATIFLSLPLRGVCVRDADVFCGESYLKVNFPPFLFELFLYAPIDDGKSKAKIGNDTILFTLYKKEPVLWDSLSVPGVDKEMMQRIREKSILQAQEKAKEATEAKAVAKREDQRYALGEMMKIEEEERKKIEDMKENERKKATSELEAWKECQKKADGQKRVQRKEKPLEGKQAEETKALKPRGLPRKAPPTRLPTRGRNWENIFPEKLKEDRVPAPRSAGSIQISFTPRVFPTALRESQVAEEEEWLHKQAEARRAMSTDLPEFFDLKEEERNPDWLKDKGNKLFATENYLAAVDAYNLAIRLNCKIPLLYLNRAACHLKLKNLHKAIEDSSKALELLTPPVADNANARMKAHVRRGTAFCQLELYVEGLQDYEAALKIDPANTVVQNDAEKIRNIIQGTALKSRD
binding [1]: binds
binding [2]: binds

Source: paper PMC9298768
